Source: publication PMC7778610
No constants are given. Whether binding was seen depends on the method and setting. Binding seen in cells or lysates may run through a third protein. Some entries that bind do so weakly or less than the wild type.

By UniProt entry, the sequences of proteins in these tests, tags left out.
UniProt Q9Y5Q3: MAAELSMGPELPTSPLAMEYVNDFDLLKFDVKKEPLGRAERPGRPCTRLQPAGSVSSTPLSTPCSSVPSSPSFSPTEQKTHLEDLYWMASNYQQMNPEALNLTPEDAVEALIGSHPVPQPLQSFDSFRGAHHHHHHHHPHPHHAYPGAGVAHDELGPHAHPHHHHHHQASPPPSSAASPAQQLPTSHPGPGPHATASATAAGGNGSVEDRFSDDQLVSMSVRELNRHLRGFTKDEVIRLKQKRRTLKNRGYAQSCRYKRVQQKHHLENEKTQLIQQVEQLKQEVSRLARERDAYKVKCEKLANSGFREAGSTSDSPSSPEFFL
UniProt Q9Y6Q9: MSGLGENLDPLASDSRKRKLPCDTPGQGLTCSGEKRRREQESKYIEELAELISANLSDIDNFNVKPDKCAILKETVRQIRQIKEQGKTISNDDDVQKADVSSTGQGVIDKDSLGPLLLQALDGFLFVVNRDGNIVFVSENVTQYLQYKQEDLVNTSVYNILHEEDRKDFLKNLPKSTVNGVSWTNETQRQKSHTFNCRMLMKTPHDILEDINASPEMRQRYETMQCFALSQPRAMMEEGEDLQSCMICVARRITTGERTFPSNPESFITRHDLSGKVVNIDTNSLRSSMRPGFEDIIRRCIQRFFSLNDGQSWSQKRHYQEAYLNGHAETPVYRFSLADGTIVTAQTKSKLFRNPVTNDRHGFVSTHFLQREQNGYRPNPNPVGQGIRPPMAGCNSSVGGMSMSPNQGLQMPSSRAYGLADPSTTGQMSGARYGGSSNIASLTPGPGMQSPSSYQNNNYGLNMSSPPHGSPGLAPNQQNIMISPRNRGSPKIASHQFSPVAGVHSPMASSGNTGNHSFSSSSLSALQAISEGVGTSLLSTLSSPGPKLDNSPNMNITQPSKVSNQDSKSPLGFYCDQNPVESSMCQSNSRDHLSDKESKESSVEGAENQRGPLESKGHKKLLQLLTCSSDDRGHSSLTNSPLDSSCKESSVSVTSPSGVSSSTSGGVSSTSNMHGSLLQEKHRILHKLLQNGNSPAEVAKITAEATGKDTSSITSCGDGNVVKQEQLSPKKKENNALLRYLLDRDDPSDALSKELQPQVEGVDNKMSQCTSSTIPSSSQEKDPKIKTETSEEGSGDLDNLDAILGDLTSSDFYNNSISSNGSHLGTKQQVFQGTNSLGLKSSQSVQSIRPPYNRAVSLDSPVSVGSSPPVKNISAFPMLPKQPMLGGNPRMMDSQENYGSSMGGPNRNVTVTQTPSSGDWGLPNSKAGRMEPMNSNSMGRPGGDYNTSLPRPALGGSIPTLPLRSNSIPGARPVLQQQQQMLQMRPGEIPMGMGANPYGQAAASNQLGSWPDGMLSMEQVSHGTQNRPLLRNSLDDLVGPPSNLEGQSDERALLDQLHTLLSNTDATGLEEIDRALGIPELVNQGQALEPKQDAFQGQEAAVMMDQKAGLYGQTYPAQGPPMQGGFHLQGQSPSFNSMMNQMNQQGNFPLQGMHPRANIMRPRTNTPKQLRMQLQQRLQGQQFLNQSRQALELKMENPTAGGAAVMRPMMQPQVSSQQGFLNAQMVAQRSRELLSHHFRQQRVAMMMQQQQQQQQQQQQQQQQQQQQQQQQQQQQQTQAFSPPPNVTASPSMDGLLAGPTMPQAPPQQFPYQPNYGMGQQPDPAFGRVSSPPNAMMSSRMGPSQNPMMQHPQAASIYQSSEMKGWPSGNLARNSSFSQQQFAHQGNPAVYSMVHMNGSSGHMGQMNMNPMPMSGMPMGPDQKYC

Key:
[1] = molecular target: MafB (UniProt Q9Y5Q3); experiment: co-IP; Flag-AIB1 and MafB plasmids cotransfected into 293T cells, lysed 24 h after transfection; lysates immunoprecipitated with the corresponding antibodies or control IgG; western blotting
[2] = molecular target: GST-MafB (UniProt Q9Y5Q3); experiment: pull-down; GST-MafB or GST on glutathione Sepharose 4B beads, lysates of cells overexpressing Flag-AIB1 or the Flag-AD2 domain added; beads washed, western blotting; only the target purified
[3] = molecular target: Flag-tagged AIB1 (amplified in breast cancer 1) (UniProt Q9Y6Q9); experiment: co-IP; Flag-AIB1 and MafB plasmids cotransfected into 293T cells, lysed 24 h after transfection; lysates immunoprecipitated with the corresponding antibodies or control IgG; western blotting

binding [1] | binding [2] | binding [3] | Substance
binds | binds |  | Flag-tagged AIB1 (amplified in breast cancer 1) (from UniProt Q9Y6Q9 1-1424)
 |  | binds | MafB (from UniProt Q9Y5Q3 1-323)
